# Measured values as given in patent US20260223852A1, “FUNGICIDAL COMPOSITIONS” (SYNGENTA CROP PROTECTION AG, priority 2023, published 2026).
# Some entries share one result that the patent states for a list of compounds.
# What was measured:
# [1] = test system: Phaeosphaeria nodorum (Septoria nodorum); experiment: Example B11: Phaeosphaeria nodorum (Septoria nodorum) / wheat / leaf disc preventative (glume blotch); format: in vivo; conditions: 200 ppm, compared to untreated control
# Sclerotinia sclerotiorum = experiment: Example B18: Sclerotinia sclerotiorum / liquid culture (cottony rot); format: cell-based; conditions: 20 ppm, compared to untreated control
# Cercospora kikuchii = experiment: Example B3: Cercospora kikuchii (leaf blight of soybean), liquid culture; format: cell-based; conditions: 20 ppm, compared to untreated control
# Cercospora sojina = experiment: Example B4: Cercospora sojina (frogeye leaf spot of soybean), liquid culture; format: cell-based; conditions: 20 ppm, compared to untreated control
# Corynespora cassiicola = experiment: Example B6: Corynespora cassiicola (target leaf spot of tomato), liquid culture; format: cell-based; conditions: 20 ppm, compared to untreated control
SMILES,control of Phaeosphaeria nodorum [1],control of Sclerotinia sclerotiorum (Sclerotinia sclerotiorum),control of Botryotinia fuckeliana (Cercospora kikuchii),control of Cercospora sojina (Cercospora sojina),control of Corynespora cassiicola (Corynespora cassiicola)
"Cn1cc(C(C)(CNC(=O)c2nnc(-c3ncc(F)cc3F)s2)c2cccc(Cl)n2)cn1 (stereo not drawn) [X.15, N-[2-(6-chloro-2-pyridyl)-2-(1-methylpyrazol-4-yl)propyl]-5-(3,5-difluoro-2-pyridyl)-1,3,4-thiadiazole-2-carboxamide]",at least 80%,at least 80%,,,
"Cn1cc(C(C)(CNC(=O)c2cc(-c3ncc(F)cc3F)on2)c2cccc(Cl)n2)cn1 (stereo not drawn) [X.11, N-[2-(6-chloro-2-pyridyl)-2-(1-methylpyrazol-4-yl)propyl]-5-(3,5-difluoro-2-pyridyl)isoxazole-3-carboxamide]",,at least 80%,,,
"Cn1cc(C(C)(CNC(=O)c2cc(-c3ccc(F)cc3F)on2)c2cccc(Cl)n2)cn1 (stereo not drawn) [X.01, N-[2-(6-chloro-2-pyridyl)-2-(1-methylpyrazol-4-yl)propyl]-5-(2,4-difluorophenyl)isoxazole-3-carboxamide]",,,at least 80%,at least 80%,at least 80%
"Cn1cc(C(C)(CNC(=O)c2cc(-c3ccc(F)cc3F)on2)c2cccc(C#N)n2)cn1 (stereo not drawn) [X.02, N-[2-(6-cyano-2-pyridyl)-2-(1-methylpyrazol-4-yl)propyl]-5-(2,4-difluorophenyl)isoxazole-3-carboxamide]",,,at least 80%,at least 80%,at least 80%
